Measurements reported in PubChem BioAssay AID652259 (Drosophila RNAi Screening Center, 2013).
Aim: 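Knock-downs that push a Wingless-driven reporter up or down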 (primary screen). Cell system: Drosophila clone 8 imaginal disc epithelial cells. Knock-down reagent: long dsRNA against Drosophila genes. Challenge: pathway stimulated by co-transfected Wingless expression plasmid. Read-out: 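Firefly luciferase from a tcf-site Wingless reporter, measured alongside co-transfected Renilla luciferase that tracks transfection; pathway stimulated by a Wingless plasmid; the firefly-to-Renilla ratio is not deposited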. Reading the numbers: firefly reporter light: higher = more Wg reporter light, before normalisation; Renilla control light: higher = more transfected or surviving cells. Call rule: 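Strong candidates differ from their plate mean by at least two out of four per-plate statistical tests; weak candidates meet just one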. Calls: active = candidate regulator (raises or lowers reporter); inactive = not a candidate.
The screen tested about 22,000 reagents; this is an unselected part of those that have a named target and a result. Over the whole deposit, 233 (1.1%) were called active. 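Light values are raw, unnormalised plate reads; the ratio scores behind the reporter calls were not deposited.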 The numbers tell different reagents against one gene apart. Names joined by + are all predicted targets of the reagent. The record does not give: the amount of reagent, the time to read-out, the dose of the treatment.

| gene knocked down | dsRNA no. | firefly reporter light, replicate 1 | firefly reporter light, replicate 2 | Renilla control light, replicate 1 | Renilla control light, replicate 2 | Call |
| --- | --- | --- | --- | --- | --- | --- |
| CG12426 | 1 | 7064 | – | 2955 | – | inactive |
| Gbs-76A (Glycogen binding subunit 76A) | 1 | 7232 | – | 2877 | – | inactive |
| CG9919 | 1 | 27389 | – | 13833 | – | inactive |
| Urm1 (Ubiquitin-related modifier 1) | 1 | 6.09e5 | 6.02e5 | 2.85e5 | 1.94e5 | inactive |
| CG12728 | 1 | 2364 | 4472 | 760 | 1840 | inactive |
| CG12831 | 1 | 2400 | 5211 | 861 | 3504 | inactive |
| CG15425 | 1 | 3866 | 10041 | 992 | 2288 | inactive |
| Icmt (Isoprenylcysteine carboxyl methyltransferase) | 1 | 5372 | – | 2631 | – | inactive |
| Osi8 (Osiris 8) | 1 | 13616 | – | 4749 | – | inactive |
| Cbp20 (cap binding protein 20) | 1 | 14390 | – | 2812 | – | inactive |
| CG34331 | 1 | 17757 | – | 10643 | – | inactive |
| CG43069 | 1 | 16293 | – | 11664 | – | inactive |
| mus301 (mutagen-sensitive 301) | 1 | 1976 | 8492 | 1514 | 2882 | inactive |
| Rme-8 (Receptor mediated endocytosis 8) | 1 | 13765 | – | 2032 | – | inactive |
| Scp2 (Sarcoplasmic calcium-binding protein 2) | 1 | 4748 | – | 1952 | – | inactive |
| Scp2 (Sarcoplasmic calcium-binding protein 2) | 2 | 15466 | – | 3350 | – | inactive |
| msk (moleskin) | 1 | 12023 | – | 2483 | – | inactive |
| Or85b (Odorant receptor 85b) | 1 | 15089 | – | 4243 | – | inactive |
| CG12320 | 1 | 14635 | – | 2261 | – | inactive |
| rdgBbeta | 1 | 8976 | – | 3402 | – | inactive |
| CG8142 | 1 | 2464 | 7915 | 1088 | 3616 | inactive |
| CG43317 | 1 | 10659 | – | 3264 | – | inactive |
| CG9123 | 1 | 23180 | – | 11824 | – | inactive |
| form3 (formin 3) | 1 | 2925 | 9293 | 2140 | 3658 | inactive |
| form3 (formin 3) | 2 | 4500 | – | 2716 | – | inactive |
| form3 (formin 3) | 3 | 1668 | 8112 | 1644 | 2758 | inactive |
| Hyccin | 1 | 16229 | – | 4260 | – | inactive |
| ppk26 (pickpocket 26) | 1 | 977 | 6932 | 1234 | 3072 | inactive |
| Cda9 (Chitin deacetylase-like 9) | 1 | 3574 | – | 1616 | – | inactive |
| CG13594 | 1 | 3312 | 9526 | 873 | 2677 | inactive |
| CG12689 | 1 | 12709 | – | 7157 | – | inactive |
| Grl36b (Gustatory receptor-like 36b) | 1 | 19876 | – | 8835 | – | inactive |
| Spindly | 1 | 5239 | 7082 | 1032 | 1013 | inactive |
| CG4004 | 1 | 2696 | 5216 | 1173 | 2052 | inactive |
| CG4004 | 2 | 20355 | – | 10008 | – | inactive |
| CG18327 | 1 | 5144 | – | 2200 | – | inactive |
| CG12951 | 1 | 11728 | – | 2017 | – | inactive |
| CG6479 | 1 | 3012 | – | 1011 | – | inactive |
| CG12343 | 1 | 2284 | 5225 | 629 | 1894 | inactive |
| CG34051 | 1 | 19747 | – | 20764 | – | inactive |
| ATP6AP2 (ATPase H+ transporting accessory protein 2) | 1 | 18608 | – | 5479 | – | inactive |
| CG1812 | 1 | 3738 | 10553 | 1592 | 4016 | inactive |
| CG10265 | 1 | 11749 | – | 3707 | – | inactive |
| CG10265 | 2 | 8.55e5 | 7.68e5 | 4.16e5 | 3.77e5 | inactive |
| CG4839 | 1 | 7204 | – | 2976 | – | inactive |
| CG4839 | 2 | 2541 | 4667 | 1179 | 2817 | inactive |
| Dscam2 (Down syndrome cell adhesion molecule 2) | 1 | 4747 | – | 2231 | – | inactive |
| Dscam2 (Down syndrome cell adhesion molecule 2) | 2 | 1889 | 7287 | 1652 | 3064 | inactive |
| Dscam2 (Down syndrome cell adhesion molecule 2) | 3 | 1376 | 5654 | 336 | 555 | inactive |
| Dscam2 (Down syndrome cell adhesion molecule 2) | 4 | 1568 | 5559 | 1312 | 2356 | inactive |
| Dscam2 (Down syndrome cell adhesion molecule 2) | 5 | 1004 | 9616 | 1052 | 3942 | inactive |
| Dscam2 (Down syndrome cell adhesion molecule 2) | 6 | 6.07e5 | 6.36e5 | 1.97e5 | 1.85e5 | inactive |
| Pfrx (6-phosphofructo-2-kinase) | 1 | 20928 | – | 11124 | – | inactive |
| Pfrx (6-phosphofructo-2-kinase) | 2 | 5082 | – | 1568 | – | inactive |
| Coq4 + frc | 1 | 5896 | – | 2692 | – | inactive |
| Coq4 + frc | 2 | 6896 | – | 3810 | – | inactive |
| CG9586 | 1 | 3122 | 6874 | 1234 | 4484 | inactive |

11 entries from above, reformatted.
CG9919
- firefly reporter light, replicate 1: 27389
- Renilla control light, replicate 1: 13833
- Call: inactive

Urm1 (Ubiquitin-related modifier 1)
- firefly reporter light, replicate 1: 6.09e5
- firefly reporter light, replicate 2: 6.02e5
- Renilla control light, replicate 1: 2.85e5
- Renilla control light, replicate 2: 1.94e5
- Call: inactive

CG12728
- firefly reporter light, replicate 1: 2364
- firefly reporter light, replicate 2: 4472
- Renilla control light, replicate 1: 760
- Renilla control light, replicate 2: 1840
- Call: inactive

CG12831
- firefly reporter light, replicate 1: 2400
- firefly reporter light, replicate 2: 5211
- Renilla control light, replicate 1: 861
- Renilla control light, replicate 2: 3504
- Call: inactive

CG15425
- firefly reporter light, replicate 1: 3866
- firefly reporter light, replicate 2: 10041
- Renilla control light, replicate 1: 992
- Renilla control light, replicate 2: 2288
- Call: inactive

Icmt (Isoprenylcysteine carboxyl methyltransferase)
- firefly reporter light, replicate 1: 5372
- Renilla control light, replicate 1: 2631
- Call: inactive

Osi8 (Osiris 8)
- firefly reporter light, replicate 1: 13616
- Renilla control light, replicate 1: 4749
- Call: inactive

Cbp20 (cap binding protein 20)
- firefly reporter light, replicate 1: 14390
- Renilla control light, replicate 1: 2812
- Call: inactive

CG34331
- firefly reporter light, replicate 1: 17757
- Renilla control light, replicate 1: 10643
- Call: inactive

CG43069
- firefly reporter light, replicate 1: 16293
- Renilla control light, replicate 1: 11664
- Call: inactive

mus301 (mutagen-sensitive 301)
- firefly reporter light, replicate 1: 1976
- firefly reporter light, replicate 2: 8492
- Renilla control light, replicate 1: 1514
- Renilla control light, replicate 2: 2882
- Call: inactive

More results:
| gene knocked down | dsRNA no. | firefly reporter light, replicate 1 | firefly reporter light, replicate 2 | Renilla control light, replicate 1 | Renilla control light, replicate 2 | Call |
| --- | --- | --- | --- | --- | --- | --- |
| Pex19 (Peroxin 19) | 1 | 8444 | – | 3344 | – | inactive |
| CG6254 | 1 | 5864 | – | 2403 | – | inactive |
| CG42399 | 1 | 4688 | 8502 | 1464 | 2688 | inactive |
| CG42399 | 2 | 2070 | 8537 | 1232 | 3170 | inactive |
| scb (scab) | 1 | 23395 | – | 17405 | – | inactive |
| scb (scab) | 2 | 7174 | – | 2135 | – | inactive |
| CG14692 | 1 | 16376 | – | 4055 | – | inactive |
| PK2-R2 (Pyrokinin 2 receptor 2) | 1 | 8330 | – | 3408 | – | inactive |
| CG10947 | 1 | 11360 | – | 3969 | – | inactive |
| SMC5 (Structural maintenance of chromosomes 5) | 1 | 6432 | – | 3537 | – | inactive |
| CG32450 | 1 | 3571 | – | 1642 | – | inactive |
| CG14864 | 1 | 19170 | – | 4170 | – | inactive |
| CG8172 | 1 | 4487 | 8849 | 1769 | 5229 | inactive |
| CG8172 | 2 | 6.91e5 | 6.95e5 | 2.46e5 | 2.47e5 | inactive |
| Adgf-B (Adenosine deaminase-related growth factor B) | 1 | 7816 | – | 3105 | – | inactive |
| hui (hase und igel) | 1 | 18656 | – | 3785 | – | inactive |
| atl (atlastin) | 1 | 2840 | 6789 | 1069 | 1552 | inactive |
| MED1 (Mediator complex subunit 1) | 1 | 7834 | – | 3607 | – | inactive |
| rogdi | 1 | 2343 | – | 1221 | – | inactive |
| CG8229 | 1 | 10876 | – | 3559 | – | inactive |
| CG43109 | 1 | 16439 | – | 9867 | – | inactive |
| sunn | 1 | 2.84e5 | 2.99e5 | 1.54e5 | 1.29e5 | inactive |
| sqd (squid) | 1 | 24017 | – | 2361 | – | inactive |
| sqd (squid) | 2 | 7780 | – | 2202 | – | inactive |
| sqd (squid) | 3 | 5.16e5 | 5.03e5 | 2.66e5 | 2.39e5 | inactive |
| CG15136 | 1 | 2032 | 5636 | 727 | 2528 | inactive |
| eg (eagle) | 1 | 12343 | – | 3969 | – | inactive |
| CG9692 | 1 | 8309 | – | 2967 | – | inactive |
| CG34286 | 1 | 7027 | – | 2982 | – | inactive |
| CG34286 | 2 | 2.03e5 | 3.57e5 | 1.18e5 | 1.49e5 | inactive |
| Drak (Death-associated protein kinase related) | 1 | 12185 | – | 6834 | – | inactive |
| CtsK2 (Cathepsin K2) | 1 | 12102 | – | 3636 | – | inactive |
| neb (nebbish) | 1 | 11009 | – | 2588 | – | inactive |
| CG10710 | 1 | 4933 | – | 2116 | – | inactive |
| CG7506 | 1 | 6893 | – | 2235 | – | inactive |
| egh (egghead) | 1 | 21993 | – | 9773 | – | inactive |
